Test results reported in PubChem BioAssay AID1307 (SRMLSC, 2008).
Fewer than 10 of roughly 1,200 compounds were called active.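 Rule for the calls: active = inhibition reaching a set limit at one or more tested concentrations; inactive = inhibition under that limit at every dose.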 The list shows a part of the results. Measured potencies and affinities stand elsewhere.

test: RAM pathway signaling blockade in S. cerevisiae – dose response (AID 1307);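 note: 0% = DMSO vehicle wells and 100% = 10 µM 1-NA-PP1 control; higher inhibition means more yeast growth since RAM block rescues cells from 5-FOA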; conditions: S. cerevisiae RAM network URA3 reporter, 5-FOA growth OD615, active compounds read high, yeast express analog-sensitive mutant Cbk1 kinase; at 100 µM unless noted

Max inhibition, inactive:
CCc1ccc(OCC(=O)N2c3ccccc3CCc3ccccc32)cc1 2.64% [at 3.125 µM], O=C(Nc1ccc(F)cc1)c1sccc1SCc1cccc(C(F)(F)F)c1 2.84% [at 1.563 µM], CCCNS(=O)(=O)c1ccc(CCC(=O)Nc2cc(Cl)ccc2Oc2ccccc2)cc1 1.73%, CCC(C(=O)Nc1ccsc1C(=O)OC)c1ccccc1 (centres undefined) 2.46% [at 0.391 µM], N#CC(c1ccc(F)cc1)c1ccc(C(=O)c2ccccc2)cc1 (centres undefined) 3.72% [at 50 µM], CN(C[C@H](Cc1ccccc1)N(C[C@H](Cc1ccccc1)N(CCC(C)(C)C)N=O)N=O)N=O 2.96% [at 1.563 µM], CC(C)(C)NC(=O)c1ccc(NC(=O)CSc2ccccc2)cc1 3.2% [at 1.563 µM], Cc1ccc(-n2ncc3c(=O)[nH]c(SCC(=O)N4CCCc5ccccc54)nc32)cc1 7.61%, Nc1nn2c(-c3ccccc3)cc(=O)[nH]c2c1N=Nc1ccc(Br)cc1 1.99% [at 6.25 µM], CCC(C)NC(=O)c1ccccc1NC(=O)c1ccc(CSc2ccccc2)cc1 (centres undefined) 2.42%, FC(F)Sc1ccc(NC(=S)NC(c2ccccc2)c2ccccc2)cc1 4.2% [at 0.196 µM], O=C(NC(=S)N(Cc1ccccc1)Cc1ccccc1)c1ccccc1F 2.14% [at 3.125 µM], COc1ccc(CCN2C(=O)/C(=C\c3ccco3)SC2=S)cc1OC 7.96%, CCN(CC)S(=O)(=O)c1cccc(C(=O)OCC(=O)c2ccc3c(c2)OCCO3)c1 3.81% [at 6.25 µM], CCOc1cc(C2NN=C(c3ccccc3)S2)ccc1OCc1ccccc1Cl (centres undefined) 3.36% [at 50 µM], CCCCCCn1c(=O)c(C(=O)N/N=C/c2cccc(F)c2)c(O)c2ccccc21 6.08% [at 6.25 µM], CSc1ccc(/C=C/C(=O)c2ccc(NC(=O)Cc3ccccc3)cc2)cc1 7.56%, COCCCNc1nc(SCc2ccccc2)nc2sc3c(c12)CCC3 4.5% [at 50 µM], O=C(C1=C[C@H](c2csc3ccccc23)C[C@H](OCc2ccc(CO)cc2)O1)N1CCOCC1 2.48% [at 0.391 µM], CC(C)OCCCNC(=O)C(NS(=O)(=O)c1ccc2c(c1)c(=O)n(C)c(=O)n2C)c1ccccc1 (centres undefined) 2.24%, CCCC1S/C(=N/N=C/c2ccc(OC)cc2)N(Cc2ccc(OC)cc2)C1=O (centres undefined) 7.41%, C=CCN1C(=O)/C(=C/c2ccc(OC(C)=O)c(OCC)c2[N+](=O)[O-])SC1=S 2.43% [at 50 µM], CCCCSc1nc(SCC(=O)NCc2ccco2)c2c3c(sc2n1)COC(C)(CC)C3 (centres undefined) 8.99% [at 50 µM], CCn1c(CCNC(=O)c2ccc(Cl)c(Cl)c2)nnc1SCCOc1ccc(OC)cc1 3.23%, Cc1cccc(CSc2nc3sc(C)c(C)c3c(=O)n2Cc2ccco2)c1 5.75% [at 25 µM], CCOC(=O)CSc1nc(-c2ccccc2)nc2ccc(F)cc12 6.49%, Cn1c(=O)c2c(ncn2CC(=O)OCC(=O)NC(c2ccccc2)c2ccccc2)n(C)c1=O 9.47% [at 50 µM], CCOC(=O)c1sc(NC(=O)CCCn2nc([N+](=O)[O-])cc2C)c(C(=O)OCC)c1C 4.45% [at 0.782 µM], Cc1nn(CCc2nn[nH]n2)c2nc(-c3ccc(C4CCCCC4)cc3)cc(C(F)(F)F)c12 8.89%, CCCOc1ccc(/C=C2\SC(=S)N(CC3CCCO3)C2=O)cc1 (centres undefined) 5.7% [at 50 µM], COc1ccc(Cl)cc1NC(=O)NC(C)C(C)(C)C (centres undefined) 3.94% [at 25 µM], CCCc1nn(C)c(C(=O)Nc2ccc(C(C)(C)C)cc2)c1Cl 3.4%, CCCCOc1nc2ccccc2nc1C(C#N)C(=O)NC1CCCCC1 (centres undefined) 4.45%, Cc1cc(NC(=O)CSc2nc3ccsc3c(=O)n2Cc2ccccn2)n[nH]1 2.41% [at 12.5 µM], C=CCOc1cccc(/C=C2\C(=O)N(Cc3ccc(C)cc3)C(C)=C2C(=O)OC)c1 6.85%, CCC1C/C(=C/c2cccs2)C(=O)/C(=C/c2cccs2)C1 (centres undefined) 6.84% [at 25 µM], CCCCCCN(C(=O)CCCCCN1C(=O)NC(c2ccc(-c3ccccc3)cc2)C(C(=O)OCc2ccccc2)=C1C)C(C)C(=O)NCCCC (centres undefined) 4.59%, CC(=O)NCCn1c(SCc2cccc([N+](=O)[O-])c2)nc2ccccc2c1=O 4.57%, Cc1ccc(Oc2ccc(NC(=O)CCC(=O)OCC(=O)c3cccs3)cc2)cc1C 2.21% [at 12.5 µM], Clc1ccccc1CSc1nnc(-c2ccco2)c(-c2ccco2)n1 10.5%, Cc1cccc(NC(=O)CCC(=O)OCC(=O)c2ccc(Oc3ccc([N+](=O)[O-])cc3)cc2)c1 10.3% [at 50 µM], Cc1[nH]n(-c2ccccc2)c(=O)c1N=Nc1ccccc1 2.67% [at 0.196 µM], O=C(N=Nc1c(O)n(C2OC(=O)c3ccccc32)c2ccccc12)c1ccc(O)cc1 (centres undefined) 6.24%, COc1ccc(-c2ccc(SCC(=O)NCc3ccc4c(c3)OCO4)nn2)cc1OC 9.68%, CC(=O)c1ccc(NC(=S)NC2CCCC(C)C2C)cc1 (centres undefined) 3.65% [at 0.196 µM], COc1ccc(OCCNC(=O)c2cccc(Oc3ccc(C(F)(F)F)cc3[N+](=O)[O-])c2)cc1 4.55% [at 25 µM], COc1ccc(NC(=O)CSc2nc3ccccc3c(=O)n2CCNC(C)=O)c(OC)c1 2.13% [at 1.563 µM], CN(c1ccc(C(=O)NCCSCc2ccc(Cl)cc2)cc1)S(=O)(=O)c1ccccc1 3.48% [at 25 µM], COC(=O)CCCCCN1C(=O)NC(c2ccc(-c3ccccc3)cc2)C(C(=O)OCc2ccccc2)=C1C (centres undefined) 4.68% [at 50 µM]
